# These are yes or no findings as the source states them, for the method shown. In cells and extracts the contact can be indirect. Some binding calls cover weakened binding; strength is not graded here.
# Chains of the proteins cited; added tags and fusions are not shown. Lines headed by an entry give the natural chain unless they say otherwise; changes in a name come on top.
# UniProt P16520: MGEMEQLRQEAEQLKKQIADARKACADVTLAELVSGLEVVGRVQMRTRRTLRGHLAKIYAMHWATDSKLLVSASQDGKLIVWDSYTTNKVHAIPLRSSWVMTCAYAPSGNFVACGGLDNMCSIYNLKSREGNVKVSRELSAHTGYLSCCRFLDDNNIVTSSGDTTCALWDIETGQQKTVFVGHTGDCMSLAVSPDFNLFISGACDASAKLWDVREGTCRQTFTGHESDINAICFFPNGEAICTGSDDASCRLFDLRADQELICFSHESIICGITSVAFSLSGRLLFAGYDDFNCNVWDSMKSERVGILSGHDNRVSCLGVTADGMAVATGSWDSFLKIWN
# UniProt O14610: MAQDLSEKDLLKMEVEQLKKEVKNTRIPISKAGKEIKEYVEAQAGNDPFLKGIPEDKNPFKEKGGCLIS
# UniProt P63096: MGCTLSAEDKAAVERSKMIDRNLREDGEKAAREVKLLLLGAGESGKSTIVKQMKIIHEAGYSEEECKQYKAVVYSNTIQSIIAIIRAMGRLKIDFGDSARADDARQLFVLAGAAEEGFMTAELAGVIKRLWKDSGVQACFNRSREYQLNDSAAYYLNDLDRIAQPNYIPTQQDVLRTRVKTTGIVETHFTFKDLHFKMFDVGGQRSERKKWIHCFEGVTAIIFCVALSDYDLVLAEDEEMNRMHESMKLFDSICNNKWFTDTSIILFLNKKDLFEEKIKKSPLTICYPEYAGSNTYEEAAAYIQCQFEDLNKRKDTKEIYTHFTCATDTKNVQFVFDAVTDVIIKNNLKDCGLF
# Biological target: Gβγ (Gβ3 and γ9-GFP fusion) (human) (UniProt P16520+O14610)
# Assay: FRET or BRET; HEK293T cells co-transfected 1:1:1:1 with neurotensin receptor, Gα-RLuc8, Gβ and Gγ-GFP2; coelenterazine 400a; neurotensin dose series for 5 min; BRET ratio GFP2 (510 nm) over RLuc8 (395 nm); net BRET read as receptor-mediated dissociation of Gαi from Gβγ; intracellular pH lowered (7.2 to 6.7-6.85) by extracellular pH or FCCP
substance,measurement,value
"Full-length human Gαi containing Renilla luciferase (Gα-RLuc8), wild type (from UniProt P63096 1-354)",binding,binds
Gαi double variant (E236L/D237G) containing Renilla luciferase (from UniProt P63096 1-354),binding,binds

# From publication PMC11092800
